A short description of the data set: Boc solid-phase peptide synthesis; Benzhydrylamine resin. Conditions: whole synthesis, scale 0.50 mmole.

“L-tyrosyl-D-alanyl-L-glycyl-L-pentafluoro phenylalanyl-L-methionine enkephalin amide” yielded an isolated mass of 45 mg.
